Assay results: the supplement of paper PMC10849652
Some of the results follow.

Sequences of proteins named here, by UniProt entry; tags and fusion partners are left off. A change or cut given only in a name is not applied to a line headed by its entry.
UniProt O60493, whole entry, looked up: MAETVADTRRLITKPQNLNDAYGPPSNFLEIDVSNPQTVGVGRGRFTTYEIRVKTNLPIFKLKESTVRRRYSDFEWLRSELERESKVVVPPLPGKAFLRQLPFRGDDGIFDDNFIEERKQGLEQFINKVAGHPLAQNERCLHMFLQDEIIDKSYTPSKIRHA
UniProt Q9NRH2: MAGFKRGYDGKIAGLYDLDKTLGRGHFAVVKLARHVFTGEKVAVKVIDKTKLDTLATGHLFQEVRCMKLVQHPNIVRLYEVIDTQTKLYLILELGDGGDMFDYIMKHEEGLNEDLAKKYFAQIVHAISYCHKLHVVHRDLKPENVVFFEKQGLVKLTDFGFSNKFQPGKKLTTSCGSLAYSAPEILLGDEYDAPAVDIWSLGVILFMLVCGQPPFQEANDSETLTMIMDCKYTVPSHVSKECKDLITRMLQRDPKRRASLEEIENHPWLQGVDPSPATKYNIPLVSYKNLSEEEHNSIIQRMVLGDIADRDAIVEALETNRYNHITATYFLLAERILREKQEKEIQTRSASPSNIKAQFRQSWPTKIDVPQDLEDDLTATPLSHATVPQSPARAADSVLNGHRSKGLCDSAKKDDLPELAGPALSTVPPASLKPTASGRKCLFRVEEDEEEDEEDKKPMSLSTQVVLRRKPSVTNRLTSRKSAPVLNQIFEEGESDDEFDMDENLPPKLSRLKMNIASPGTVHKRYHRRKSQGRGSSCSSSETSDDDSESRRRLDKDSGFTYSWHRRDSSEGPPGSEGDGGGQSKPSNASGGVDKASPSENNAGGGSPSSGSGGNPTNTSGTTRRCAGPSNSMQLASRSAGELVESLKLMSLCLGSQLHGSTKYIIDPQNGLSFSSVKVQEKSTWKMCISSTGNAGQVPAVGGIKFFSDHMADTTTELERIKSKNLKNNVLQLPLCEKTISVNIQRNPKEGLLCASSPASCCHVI
UniProt O00193: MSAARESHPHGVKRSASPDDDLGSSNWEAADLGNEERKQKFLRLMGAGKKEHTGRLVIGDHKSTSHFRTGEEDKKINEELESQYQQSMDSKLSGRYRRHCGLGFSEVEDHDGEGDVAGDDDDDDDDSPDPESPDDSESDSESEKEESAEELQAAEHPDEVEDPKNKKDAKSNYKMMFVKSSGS

What was measured:
Test in all cases: log2 fold change, soluble protein after heating vs DMSO (PISA); higher = thermal stabilisation; K562 cells, 10 uM, 30 min; active = over 0.2 and 3.5 SD of the protein, either way, in both replicates (recomputed)
[1] = compound: CN1CCN(CCOc2cc(OC3CCOCC3)c3c(Nc4c(Cl)ccc5c4OCO5)ncnc3c2)CC1 [saracatinib]
Procedure, shortened: (§1)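 K562 cells at 2×10^6 cells/mL were treated for 30 min with 10 μM compound, and aliquots were heated for 3 min over 48°C-58°C before pooling. Extraction used PBS with 0.5% NP-40 at 4°C, and soluble protein was the supernatant after 21,000xg for 90 min, measured by TMTpro 16plex LC-MS/MS with channel sums equalised. Thermal stability values, relative to control samples and from duplicates, are log2 fold changes.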

[2] = compound: CN1CC[C@H](c2c(O)cc(O)c3c(=O)cc(-c4ccccc4Cl)oc23)[C@H](O)C1 [alvocidib]
Procedure, shortened: as §1

[3] = compound: CN1CCc2c(c3ccccc3n2Cc2ccc(C(=O)NO)cc2)C1 [Tubastatin A]
Procedure, shortened: as §1

[4] = compound: CNC(=O)C1=CC=CC=C1NC2=NC(=NC=C2Cl)NC3=C(C=C(C=C3)N4CCOCC4)OC
Procedure, shortened: as §1

[5] = compound: CNC(=O)c1ccc(Nc2ncc(C(F)(F)F)c(NCc3nccnc3N(C)S(C)(=O)=O)n2)cc1 [defactinib]
Procedure, shortened: as §1

[6] = compound: CNCc1ccc(-c2[nH]c3cc(F)cc4c3c2CCNC4=O)cc1 [rucaparib]
Procedure, shortened: as §1

[7] = compound: CNc1nc(-c2ccc3c(N)n[nH]c3c2)cc(N2C[C@@H](C(=O)NC3CCCCC3)CC[C@H]2C)n1
Procedure, shortened: as §1

[8] = compound: COC(=O)N[C@@H](C)CNc1nccc(-c2cn(C(C)C)nc2-c2cc(Cl)cc(NS(C)(=O)=O)c2F)n1 [encorafenib]
Procedure, shortened: as §1

[9] = compound: COC(=O)[C@H](CCSC)NC(=O)C1=C(C=C(C=C1)NC[C@H](CS)N)C2=CC=CC=C2
Procedure, shortened: as §1

[10] = compound: COC1=CC=C(C=C1)CN2C=CC3=C2C=C(C=C3)C(=O)NO
Procedure, shortened: as §1

[11] = compound: CO[C@H]1C[C@@H]2CC[C@@H](C)[C@@](O)(O2)C(=O)C(=O)N2CCCC[C@H]2C(=O)O[C@H]([C@H](C)C[C@@H]2CC[C@H](n3cnnn3)[C@H](OC)C2)CC(=O)[C@H](C)/C=C(\C)[C@@H](O)[C@@H](OC)C(=O)[C@H](C)C[C@H](C)/C=C/C=C/C=C/1C [zotarolimus]
Procedure, shortened: as §1

[12] = compound: COc1cc(C(=O)O)ccc1NC(=O)[C@@H]1N[C@@H](CC(C)(C)C)[C@](C#N)(c2ccc(Cl)cc2F)[C@H]1c1cccc(Cl)c1F [idasanutlin]
Procedure, shortened: as §1

[13] = compound: CS(=O)(=O)N1CCN(Cc2cc3nc(-c4cccc5[nH]ncc45)nc(N4CCOCC4)c3s2)CC1 [pictilisib]
Procedure, shortened: as §1

[14] = compound: CN1CCN(c2nc(C3=C(c4c[nH]c5ccccc45)C(=O)NC3=O)c3ccccc3n2)CC1 [sotrastaurin]
Procedure, shortened: as §1

[15] = compound: CON(C)C(=O)N1N=C(c2cc(F)ccc2F)S[C@@]1(CCCN)c1ccccc1 [filanesib]
Procedure, shortened: as §1

[16] = compound: COc1cc(Nc2ncc3c(n2)-c2ccc(Cl)cc2C(c2c(F)cccc2OC)=NC3)ccc1C(=O)O [alisertib]
Procedure, shortened: as §1

[17] = compound: COc1cc2nc(-c3cc(F)ccc3O)nc(N[C@@H]3CNC[C@H]3C(C)(C)O)c2cc1OC
Procedure, shortened: as §1

[18] = compound: COc1cc2ncnc(Nc3ccc(F)c(Cl)c3)c2cc1OCCCN1CCOCC1 [gefitinib]
Procedure, shortened: as §1

[19] = compound: COc1cccc2cc(-c3nc([C@H]4CC[C@H](C(=O)O)CC4)n4ncnc(N)c34)[nH]c12
Procedure, shortened: as §1

[20] = compound: CS(=O)(=O)CCNCc1ccc(-c2ccc3ncnc(Nc4ccc(OCc5cccc(F)c5)c(Cl)c4)c3c2)o1 [lapatinib]
Procedure, shortened: as §1

Target | log2 fold change [1] | log2 fold change [2] | log2 fold change [3] | log2 fold change [4] | log2 fold change [5] | log2 fold change [6] | log2 fold change [7] | log2 fold change [8] | log2 fold change [9] | log2 fold change [10] | log2 fold change [11] | log2 fold change [12] | log2 fold change [13] | log2 fold change [14] | log2 fold change [15] | log2 fold change [16] | log2 fold change [17] | log2 fold change [18] | log2 fold change [19] | log2 fold change [20]
SNX27 (UniProt Q96L92) | inactive: -0.134 | inactive: 0.059 | inactive: -0.062 | inactive: 0.09 | inactive: 0.021 | inactive: 0.258 | inactive: 0.179 | inactive: 0.307 | inactive: -0.096 | inactive: 0.044 | inactive: 0.205 | inactive: 0.13 | inactive: 0.023 | – | – | – | – | – | – | –
SNX3 (UniProt O60493) | inactive: -0.086 | – | inactive: -0.005 | inactive: 0.018 | inactive: -0.067 | inactive: 0.081 | inactive: 0.026 | inactive: 0.194 | inactive: -0.079 | inactive: -0.049 | inactive: 0.022 | inactive: 0.075 | inactive: -0.03 | inactive: 0.038 | inactive: 0.012 | inactive: 0.074 | inactive: -0.08 | inactive: 0.01 | inactive: 0.056 | inactive: -0.026
SNRK (UniProt Q9NRH2) | inactive: -0.092 | – | – | – | – | inactive: -0.099 | inactive: 0.011 | inactive: 0.002 | – | inactive: 0.15 | – | – | – | inactive: 0.003 | inactive: 0.158 | – | active: 0.84 | – | – | inactive: 0.016
SMAP (UniProt O00193) | inactive: -0.035 | – | inactive: 0.016 | inactive: -0.069 | inactive: -0.001 | inactive: -0.064 | inactive: 0.009 | inactive: -0.054 | inactive: 0.013 | inactive: -0.046 | inactive: -0.018 | inactive: 0.005 | inactive: -0.016 | inactive: 0.016 | inactive: -0.154 | inactive: -0.01 | inactive: 0.02 | inactive: 0.033 | inactive: 0.051 | inactive: -0.013
